Consider one compound from the supplement of paper PMC7666118.

The list shows a part of the results.

This experiment has as its target T1, SARS2 (UniProt Q9NP81).
T1 sequence (whole entry): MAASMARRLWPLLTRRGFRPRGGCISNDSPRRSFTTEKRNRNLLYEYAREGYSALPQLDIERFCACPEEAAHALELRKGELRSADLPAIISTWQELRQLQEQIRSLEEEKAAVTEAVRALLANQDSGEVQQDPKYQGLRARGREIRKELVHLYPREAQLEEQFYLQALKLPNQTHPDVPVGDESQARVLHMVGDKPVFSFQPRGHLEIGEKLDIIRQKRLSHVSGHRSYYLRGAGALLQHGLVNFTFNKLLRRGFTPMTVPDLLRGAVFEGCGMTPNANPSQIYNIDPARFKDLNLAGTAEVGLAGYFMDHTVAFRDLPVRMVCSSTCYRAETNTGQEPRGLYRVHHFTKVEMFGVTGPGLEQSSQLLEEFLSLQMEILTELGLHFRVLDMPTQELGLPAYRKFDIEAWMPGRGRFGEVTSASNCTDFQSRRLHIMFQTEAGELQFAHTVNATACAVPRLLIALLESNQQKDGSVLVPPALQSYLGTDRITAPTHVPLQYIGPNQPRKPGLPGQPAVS
Nature of the experiment: dose-dependent thermal stabilisation call (2D-TPP, DLPTP, 10% FDR) (binary (1 = stabilised)); higher = stabilised by the compound. As to conditions: system: HL-60 intact cells; concentration range 0.04-10 µM. The procedure:
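2D thermal proteome profiling in intact HL-60 cells treated with BRD-3811 (0, 0.04, 0.29, 2, 10 uM) for 90 min at 37 C, then heated 3 min at one of 12 temperatures (42-63.9 C). Soluble protein was quantified by TMT10 MS. The value is the DLPTP call of the paper: dose-dependent thermal stabilisation over all temperatures at 10% FDR (F-test of a dose-response against a flat model); one experiment, one call per tested protein.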
On to `COc1ccc(Cn2ccc3cc(C)c(C(=O)NO)cc32)cc1`, for which the “dose-dependent thermal stabilisation call” value is inactive: 0.
